Data: PubChem BioAssay AID2551 (National Center for Advancing Translational Sciences (NCATS), 2010)
The campaign covered roughly 310,000 compounds. About 17,000 (5.5%) were called active. Inconclusive means that the source gave no clear call. Such entries were picked first, then a sample of the others. Calls come from the whole dose curve; as a rule, active = well fitted inhibition curve with a large enough effect; inconclusive = small, poorly fitted or top-dose-only effect, or effect the other way; inactive = no such curve, though single readings can be large or run the other way. Potencies of inconclusive entries are doubtful fits and often do not repeat.

Protein sequences, listed by entry. Tags and fused reporters are not part of them. Lines headed by an entry give the natural chain unless they say otherwise; changes in a name come on top.
UniProt P51450: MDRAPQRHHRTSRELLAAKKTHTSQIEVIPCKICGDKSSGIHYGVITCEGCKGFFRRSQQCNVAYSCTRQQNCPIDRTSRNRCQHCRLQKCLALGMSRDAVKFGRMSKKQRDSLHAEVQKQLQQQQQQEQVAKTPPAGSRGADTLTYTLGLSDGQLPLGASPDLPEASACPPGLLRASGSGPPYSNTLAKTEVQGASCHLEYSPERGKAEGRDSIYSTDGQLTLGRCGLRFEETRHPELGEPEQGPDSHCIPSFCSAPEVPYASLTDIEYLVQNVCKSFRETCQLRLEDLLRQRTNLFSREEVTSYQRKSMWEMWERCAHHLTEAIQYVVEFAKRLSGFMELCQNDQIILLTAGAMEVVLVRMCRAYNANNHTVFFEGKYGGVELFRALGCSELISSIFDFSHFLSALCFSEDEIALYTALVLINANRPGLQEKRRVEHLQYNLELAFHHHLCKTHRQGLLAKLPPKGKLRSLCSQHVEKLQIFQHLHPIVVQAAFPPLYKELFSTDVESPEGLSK

Molecular target: Nuclear receptor ROR-gamma (Mus musculus) (UniProt P51450)
Test: qHTS for inhibitors of ROR gamma transcriptional activity; note: nearly all actives have a fitted effect of over 60% in size
Settings: Drosophila S2 Gal4-RORgamma UAS-luciferase reporter, 20 h; activity change, negative = inhibition: at 53.6 µM (top of the series)
Summary of the method: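 Stably transfected Drosophila Schneider cells are the test system, with ROR gamma fused to Gal4 and luciferase under UAS control; luminescence is read after 20 hr of 700 uM copper sulfate induction at ambient temperature.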
% is set by controls: 0 for no effect and ±100 for the full control effect; potency is the fitted concentration of half-maximal effect.

Potency, inactive:
CCC1CCCCN1S(=O)(=O)c1ccc2[nH]c(=O)ccc2c1 (centres undefined)
CC1CCCCN1C(=O)c1cc(-c2ccc(Cl)c(Cl)c2)on1 (centres undefined)
Cn1c(SCC(=O)N2CCCc3ccccc32)nc2cccnc21
Cc1cccc(N2CCN(C(=O)c3ccc4ncsc4c3)CC2)c1C
Fc1ccc(CNc2nc(-c3ccco3)cc(C(F)(F)F)n2)cc1
O=[N+]([O-])c1ccc2c(OCc3nnc(-c4ccccc4Br)o3)ncnc2c1
O=C(CCn1c(=S)[nH]c2ccccc2c1=O)N1CCOCC1
Cc1nc(NC(=O)c2cc3c(C)nn(-c4ccccc4)c3s2)sc1C(=O)Nc1ccccc1
CC(/C=N/NC(=O)COc1ccccc1C)=N\NC(=O)COc1ccccc1C
Cn1cnnc1SCC(=O)Nc1cc(S(=O)(=O)N2CCCCCC2)ccc1Cl
Cc1ccc2[nH]c(C(=O)N3CCN(c4cccc(Cl)c4)CC3)cc2c1
Cc1nnsc1S(=O)c1ccc(F)cc1 (centres undefined)
O=C(CN1C(=O)c2cccc3cccc(c23)C1=O)N1CCN(Cc2ccc3c(c2)OCO3)CC1
Cc1ccc2cc(CCNC(=O)CCCc3ccccc3)c(=O)[nH]c2c1C
Cc1c(S(=O)(=O)Nc2ccc(Oc3ccccc3)cc2)c(=O)n(C)c(=O)n1C
O=C(NCCO)C(=O)NCC1OCCCN1S(=O)(=O)c1ccc2c(c1)OCCO2 (centres undefined)
N/C(=N\OC(=O)Cc1ccc([N+](=O)[O-])cc1)c1ccc([N+](=O)[O-])cc1
O=C(Nc1ccccn1)c1ccc(Cl)c(S(=O)(=O)N2CCOCC2)c1
COc1ccc(CN2CCNC(=O)C2CC(=O)NCC2CCOCC2)c(C)c1C (centres undefined)
CC(=O)Nc1ccc(CN2CCN(CCc3ccccc3)C(CCO)C2)cc1 (centres undefined)

Potency, inconclusive:
O=C(Nc1ccon1)c1sc2cc(F)ccc2c1Cl 22.4 µM [inhibitor, single point]
CCOC(=O)CNC(=O)CSc1nc2sc(C)c(C)c2c(=O)n1C 17.8 µM [inhibitor, single point]
COc1ccccc1CNS(=O)(=O)c1c(C)[nH]c(=O)[nH]c1=O 17.8 µM [inhibitor, partial curve, poor fit]
Cc1ccc(C(=O)N/N=C/C=C/c2ccccc2)o1 22.4 µM [inhibitor, single point]
CCCCn1c(SCC(=O)NCCOC)nc2ccc(N3CCOCC3)cc2c1=O 11.2 µM [inhibitor, partial curve, poor fit]
CCOC(=O)N1CCN(C(=O)c2ccc3c(=O)n(Cc4ccccc4OC)c(=S)[nH]c3c2)CC1 22.4 µM [inhibitor, single point]
Cc1cccc(CC(Cc2nc3ccccc3[nH]2)c2nc3ccccc3[nH]2)c1 (centres undefined) 35.5 µM [inhibitor, single point]
CC(C)Oc1cccc(C(=O)NC2=NCCS2)c1 10 µM [inhibitor, partial curve, poor fit]
O=C(CN1CCN(c2nc(-c3ccccc3)cs2)CC1)Nc1ccc2c(c1)OCO2 35.5 µM [activator, single point]
COc1ccc(/C=N/n2cnc3c([nH]c4ccc(C)cc43)c2=O)cc1CN1CCCC1 14.1 µM [inhibitor, partial curve, poor fit]
Cc1ccc(C)c(NS(=O)(=O)c2ccc(-c3cnc(C4CC4)o3)cc2)c1 35.5 µM [activator, single point]
CC(C)(C)Nc1nc(OCC(F)(F)F)nc(OCC(F)(F)F)n1 4.47 µM [activator, full curve]
O=C1C=CC(=C(c2ccc(O)cc2)c2ccc(O)cc2)C=C1 35.5 µM [inhibitor, single point]
Cc1ccc(Cc2nnc3n(-c4ccccc4)nc(C(=O)c4ccccc4)n3c2=O)cc1 0.891 µM [activator, partial curve]
Cc1sc(N)nc1-c1ccc(Oc2ccccc2)cc1 35.5 µM [activator, single point]
COc1cccc(-n2c(SCC(=O)Nc3ccc4c(c3)CCC4)nc3ccccc3c2=O)c1 4.47 µM [activator, partial curve]
CCC(=O)Nc1ccc(N2CCCCC2)cc1 6.31 µM [activator, single point]
CCSc1ccccc1C(=O)n1nnc2ccccc21 15.8 µM [inhibitor, single point]
CC(=O)NC1=C(NC2CCS(=O)(=O)C2)C(=O)c2ccccc2C1=O (centres undefined) 25.1 µM [inhibitor, single point]
COC(=O)c1c(NC(=O)c2ccc([N+](=O)[O-])o2)sc2c1CCN(C(C)C)C2 22.4 µM [inhibitor, single point]
COc1ccc(/C=C/C(=O)c2c(C)cc(C)[nH]c2=O)c2ccccc12 14.1 µM [inhibitor, single point]
CNc1oc(C)nc1S(=O)(=O)c1ccccc1 2.24 µM [inhibitor, partial curve, poor fit]
COc1ccc(NC(=O)CSc2nc3c(c(=O)n2-c2ccc(F)cc2)SCC3)c(OC)c1 28.2 µM [activator, partial curve, poor fit]
Cn1c(N)c(C(=O)COC(=O)CCCc2nc3ccccc3s2)c(=O)n(C)c1=O 17.8 µM [inhibitor, partial curve]
O=C(Nc1ccccc1)C(=O)c1cn(CC(=O)N2CCCCC2)c2ccccc12 7.94 µM [activator, partial curve]
COc1ccc(C(=O)N2CCCC(c3nc(-c4cccs4)no3)C2)cc1 (centres undefined) 20 µM [activator, single point]
COC(=O)c1ccc(OCC(=O)c2ccccc2)cc1 0.501 µM [activator, full curve, poor fit]
CC(C)c1ccc(CNc2cc(N3CCCC3)ccc2[N+](=O)[O-])cc1 17.8 µM [activator, single point]
O=C(Nc1nc2ccc(F)cc2s1)C1CCN(S(=O)(=O)c2cc([N+](=O)[O-])ccc2Cl)CC1 35.5 µM [inhibitor, single point]
O=C(c1ccccc1)c1cnc(Nc2ccc(Cl)c(Cl)c2)s1 12.6 µM [inhibitor, single point]
Cc1cccc(/C=N/NC(=O)c2cc(C3CC3)nc3ccccc23)n1 22.4 µM [inhibitor, single point]
O=C(Oc1ccc(-c2cn3c(n2)SCC3)cc1)c1ccccc1 14.1 µM [inhibitor, single point]
Cc1ccc2[nH]cc(C(=O)NCc3cccs3)c(=O)c2c1 1.26 µM [activator, partial curve]
Cc1ccc2oc(=O)c3c4cc(O)c(O)c(C)c4oc3c2c1 10 µM [inhibitor, partial curve]
COc1ccc(CN(C)CC(=O)Nc2sc3c(c2C#N)CCC3)cc1OC 8.91 µM [inhibitor, partial curve]
COc1ccc(CNc2nc3c(c(=O)n(Cc4ccc(Cl)cc4)c(=O)n3C)n2C)cc1 6.31 µM [activator, single point]
CCn1cc(C(=O)NCC2COc3ccccc3O2)c2cc(OC)c(OC)cc2c1=O (centres undefined) 6.31 µM [activator, full curve]
C#C[C@]1(O)CC[C@H]2[C@@H]3CCc4cc(OC)ccc4[C@H]3CC[C@@]21C 7.08 µM [activator, partial curve]
CC(C)N1CCc2c(sc(NC(=O)c3ccc(S(=O)(=O)N4CCOCC4)cc3)c2C(N)=O)C1 0.355 µM [activator, partial curve, poor fit]

4 entries from above, sorted by SMILES length, ascending:
Potency, inconclusive:
O=C(Nc1ccon1)c1sc2cc(F)ccc2c1Cl 22.4 µM [inhibitor, single point]
COC(=O)c1ccc(OCC(=O)c2ccccc2)cc1 0.501 µM [activator, full curve, poor fit]
O=C1C=CC(=C(c2ccc(O)cc2)c2ccc(O)cc2)C=C1 35.5 µM [inhibitor, single point]
O=C(CN1CCN(c2nc(-c3ccccc3)cs2)CC1)Nc1ccc2c(c1)OCO2 35.5 µM [activator, single point]

Next part:

Potency, active:
C=CCOC(=O)/C=C/C(=O)NC(N)=O 20 µM
O/N=C/c1ccc2cccc(O)c2n1 11.2 µM
CC(Sc1nc2ccccc2s1)C(=O)Nc1nnc(C(C)C)s1 (centres undefined) 2.82 µM
NC(=S)N/N=C/c1ccccc1 15.8 µM
O=C(CSc1nnc(-c2cccc(F)c2)o1)Nc1nncs1 12.6 µM
COc1ccccc1/C=N/NC(=O)C(C)Cn1cnc2ccccc21 (centres undefined) 11.2 µM
O=C(CC1S/C(=N/N=C2CCCCCC2)NC1=O)Nc1ccccc1C(F)(F)F (centres undefined) 5.62 µM
COc1ccc(CNC(=S)Nc2cc(C)ccc2C)cc1 7.94 µM
Cn1c(N2CCOCC2)c(/C=N/OC(=O)c2ccc(F)cc2)c2ccccc21 0.631 µM
COc1ccc(NC(=S)Nc2ccccc2)c(OC)c1 12.6 µM
Cc1ccccc1NC(=S)NC(=O)COc1ccccc1C 12.6 µM
CCOc1cc2[nH]c(=S)n(CCCOC)c(=O)c2cc1OCC 11.2 µM
C=CCn1c(CSc2ccc(C)cc2)n[nH]c1=S 3.98 µM

Activity change, negative = inhibition, inactive:
COc1ccccc1CN(Cc1cc2c(C)ccc(C)c2[nH]c1=O)Cc1nnnn1Cc1ccco1 4.89% [at 0.365 µM]
C#C[C@]1(O)CC[C@H]2[C@@H]3CCc4cc(OC)ccc4[C@H]3CC[C@@]21C -1.36% [at 10 µM]
